Some results were stated once for a whole list of compounds, not compound by compound. Non-standard residues stand in square brackets, D forms with d. Residues, ends and D or L forms follow the SMILES beside them. aThr = C[C@H](O)[C@H](N)C(=O)O; Ac6c = NC1(C(=O)O)CCCCC1; Nva = CCC[C@H](N)C(=O)O
System: A. baumannii strain (BAA-1605)

## CCC[C@H](NC(=O)[C@H](CCC(=O)O)NC(=O)[C@@H](N)[C@H](C)O)C(=O)N[C@H](C(=O)N[C@@H](C)C(=O)N[C@@H](CC(C)C)C(=O)N[C@@H](CO)C(=O)N[C@@H](CCCNC(=N)N)C(=O)NC1(C(N)=O)CCCCC1)C(C)C [Allo-aca] (H-[aThr]E[Nva]VALSR[Ac6c]-NH2)
  MIC: > 256 µg/mL
